Literature values as cited in US20240197687A1, “METHODS OF TREATING NEUROINFLAMMATION AND INHIBITING MONOAMINE OXIDASE-A AND RESTORING/UPREGULATING/INCREASING IL-13 AND AND PGC-1 BY ADMINISTERING ORAL DOSAGE FORM CONTAINING MICRONIZED AND NONMICRONIZED PARTICULATE METAXALONE, ALGINIC ACID AND PROPYLENE GLYCOL ALGINATE” (Primus Pharmaceuticals, Inc., priority 2022, published 2024).

Tested on: PINP rats
Conditions: rat; paclitaxel 2 mg/kg i.p. every other day, cumulative 8 mg/kg; cited from earlier work

COc1ccc(CC(C)NCC(O)c2ccc(O)c(NC=O)c2)cc1 (centres unmarked) [formoterol]
established PINP (mechanical allodynia, paw withdrawal thresholds): attenuated | onset of PINP: delayed
